Assay results published in patent US8053627B2, “Methods for treating demyelination disorders” (University of Chicago, priority 2005, dated 2011).

System: EAE demyelinating lesions
Test: EAE, CNS delivery of INF-γ at the recovery stage (doxycycline withdrawn at PID7)
Format: in vivo, mice
Text: Double transgenic mice that allow for temporally regulated delivery of INF-γ to the CNS (Lin et al., J Neurosci 24:10074-10083 (2004)) were used to assess the role of INF-γ in the pathogenesis of EAE. GFAP/tTA; TRE/IFN-γ double transgenic mice, as described in Example 1 were used to determine the effect of INF-γ on the demyelination caused by EAE. All mice were fed doxycycline from the day of conception to repress the expression of INF-γ, and were immunized with myelin oligodendrocyte protein (MOG35-55) to induce EAE. AT day 7 postimmunization (PID7), doxycycline was withdrawn from the experimental group (PID7 DOX−).
The level of INF-γ was determined in the control (DOX+) and the PID7 DOX− mice using an ELISA immunoassay as described in Example 1, and the severity of the disease was assessed as a function of a clinical score. Clinical severity scores were recorded daily according to a 0-5 point scale, where 0=healthy, 1=flaccid tail, 2=ataxia and/or paresis of hind limbs, 3=paralysis of hind limbs and/or paresis of forelimbs, 4=tetraparalysis, and 5=moribund or dead.
The spinal cord from DOX+ and DOX− animals with EAE was immunostained for MBP, and the remyelination of axons was evaluated. The number of oligodendrocytes was determined in the spine from DOX+ and DOX− mice as the number of CC1 positive cells. […]

IFN-γ: pleotropic cytokine secreted by activated T lymphocytes and natural killer cells; delivered to the CNS by transgene or added as recombinant protein
level of INF-γ (ELISA) (DOX− mice, PID50): 40.24 pg/mg | level of INF-γ (ELISA) (both DOX+ and DOX− mice, peak of disease PID17): 60 pg/mg
